# Source: patent US10336735B2, “Small molecule inhibitors of fibrosis” (THE CALIFORNIA INSTITUTE FOR BIOMEDICAL RESEARCH, priority 2014, dated 2019)
# At least one compound was matched to its structure with a doubt left.
# Columns and labels:
# [1] = test system: primary human lung fibroblasts and primary rodent HSCs; assay: High content imaging assay (α-SMA staining, cell morphology) of fibroblast to myofibroblast transdifferentiation, confirmed by Western blot and RT-PCR; type: cell-based; conditions: screen of ~100,000 small molecules
# Excerpt: High content imaging assays have been established, using primary human lung fibroblasts and primary rodent HSCs, that enable the identification of small molecules that either inhibit myofibroblast formation/activation or induce the reversion of activated myofibroblasts to a quiescent fibroblast state. Conditions, involving serum starvation and subsequent TGF-β treatment, have been identified that facilitate robust in vitro transdifferentiation in a miniaturized (384 well plate) format that is amenable to high throughput small molecule screening. The inhibition assay is based on α-SMA immunofluorescent staining and cell morphology changes associated with fibroblast to myofibroblast transdifferentiation, Using the selective ALK-5 TGF-β1 receptor inhibitor ([…]) as a positive control, the inhibition assay has been used to initiate a screen of a collection of ˜100,000 small molecules that consists of bioactive small molecules and a diversity set that has been assembled based on 2D and 3D structural diversity and inherent “drug-likeness” properties. Preliminary screening led to the identification of multiple previously identified anti-fibrotic molecules.
# A high content imaging assay, based on α-SMA staining and cell morphological changes associated with fibroblast to myofibroblast transdifferentiation, was established using primary human lung fibroblasts and primary rodent HSCs. […]
# [2] = test system: Hedgehog signaling; assay: qPCR analysis of Hedgehog related genes (PTCH1, GLI1) in rat hepatic stellate cells; type: cell-based; conditions: 1 μM, 1 ug/mL SHH-N, 24 hours
# [3] = test system: VEGFR2; assay: Western blot of VEGFR2 migration pattern in rat hepatic stellate cells; type: cell-based; conditions: various doses, 24 hours
# [4] = test system: Human lung fibroblasts; assay: Western blot of fibrosis-related proteins in cells exposed to TGFβ; type: cell-based; conditions: TGF-β1 10 ng/mL, 48 hours
# [5] = test system: CCl4-induced liver fibrosis; assay: Carbon tetrachloride-induced liver fibrosis model; type: in vivo, mouse; conditions: Pirfenidone and AM-152 as benchmark controls
# [6] = test system: Human lung fibroblasts; assay: Gene expression analysis (fibrosis RT2 Profiler PCR Array) of human lung fibroblasts; type: cell-based; conditions: TGF-β1 10 ng/mL, 48 hours
# [7] = test system: bleomycin-induced lung fibrosis; assay: Bleomycin-induced lung fibrosis model; type: in vivo, mouse; conditions: Pirfenidone and AM-152 as benchmark controls
# [8] = test system: rat hepatic stellate cells; assay: α-SMA assay in quiescent rat hepatic stellate cells with TGF-β1; type: cell-based; conditions: 48 hours, 10 ng/mL TGF-β1
structure (smiles),measurement,setting,value
CCC(C)n1ncn(-c2ccc(N3CCN(c4ccc(OCC5COC(Cn6cncn6)(c6ccc(Cl)cc6Cl)O5)cc4)CC3)cc2)c1=O (centres unmarked) [Itraconazole],inhibition of myofibroblast formation (screen),[1],highly efficacious inhibitor of myofibroblast formation
same,Hedgehog signaling (relative PTCH1 and GLI1 mRNA),[2],inhibits Hedgehog signaling
same,VEGFR2 glycosylation and trafficking (Western blot migration pattern),[3],inhibited VEGFR2 glycosylation and trafficking
same,induced alpha smooth muscle actin protein levels (Western blot),[4],dose dependent decreases in levels of induced alpha smooth muscle actin protein levels
same,efficacy in carbon tetrachloride-induced liver fibrosis mouse model,[5],demonstrated to have efficacy
same,fibrosis-related gene expression (qPCR array),[6],dose dependent changes in multiple fibrosis-related genes
same,efficacy in bleomycin-induced lung fibrosis mouse model,[7],demonstrated to have efficacy
same,mean cellular area of α-SMA staining and alpha smooth muscle actin staining,[8],dose dependent decreases in both mean cellular area and alpha smooth muscle actin staining
